Experimental data: PubChem BioAssay AID1259254 (NCATS, 2017)

Test: 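Gene knock-downs that lead to re-replication, shown by excess G2 DNA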 (primary screen)
Cell system: human HCT116 colorectal cancer cells
Reagents: single siRNA against human genes
Duration: 3 days
Read-out: 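Imaged Hoechst DNA stain sorts each cell into a cycle phase by DNA amount; per plate, G2 fraction set to 0% for non-targeting and 100% for GMNN siRNA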
Scale: G2 robust z-score: higher = more G2 cells, more excess DNA replication
Hit rule: 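An siRNA counts as active if its G2 robust z-score lies at least 5 MADs above the screen median; here such calls match roughly 38% of GMNN control or more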
Shown is one part, drawn at random, of about 59,000 reagents tested. About 1,550 of all reagents (2.6%) were called active. 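G2 share is only a proxy for re-replication; each gene was hit by three separate siRNAs, and active genes were retested.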 A number with no mark means an inactive call. Reagents against one gene are numbered here. Further read-outs or replicates are left out here. No sequences are given here. Not given: the amount of reagent.

Gene	reagent	G2 robust z-score
SV2C (synaptic vesicle glycoprotein 2C)	1	-1.54
SV2C (synaptic vesicle glycoprotein 2C)	2	-0.187
SV2C (synaptic vesicle glycoprotein 2C)	3	-0.0504
LOC401052 (retired record)	1	-0.709
LOC401052 (retired record)	2	-1.14
LOC401052 (retired record)	3	-0.773
CALY (calcyon neuron specific vesicular protein)	1	3.2
CALY (calcyon neuron specific vesicular protein)	2	-0.152
CALY (calcyon neuron specific vesicular protein)	3	0.468
KIF3C (kinesin family member 3C)	1	-0.898
KIF3C (kinesin family member 3C)	2	-0.746
KIF3C (kinesin family member 3C)	3	-0.165
PLA2G5 (phospholipase A2 group V)	1	0.3
PLA2G5 (phospholipase A2 group V)	2	-0.435
PLA2G5 (phospholipase A2 group V)	3	0.362
ANKRD7 (ankyrin repeat domain 7)	1	0.444
ANKRD7 (ankyrin repeat domain 7)	2	0.415
ANKRD7 (ankyrin repeat domain 7)	3	3.94
FAM227A (family with sequence similarity 227 member A)	1	-0.479
FAM227A (family with sequence similarity 227 member A)	2	1.99
FAM227A (family with sequence similarity 227 member A)	3	0.676
HMCN2 (hemicentin 2)	1	-0.567
HMCN2 (hemicentin 2)	2	2.93
HMCN2 (hemicentin 2)	3	1.2
HMCN2 (hemicentin 2)	4	0.069
HMCN2 (hemicentin 2)	5	-1.03
HMCN2 (hemicentin 2)	6	-0.00212
HMCN2 (hemicentin 2)	7	0.4
HMCN2 (hemicentin 2)	8	1.05
HMCN2 (hemicentin 2)	9	0.109
SMCR8 (SMCR8-C9orf72 complex subunit)	1	3.27
SMCR8 (SMCR8-C9orf72 complex subunit)	2	-0.633
SMCR8 (SMCR8-C9orf72 complex subunit)	3	0.0357
SORBS1 (sorbin and SH3 domain containing 1)	1	1.99
SORBS1 (sorbin and SH3 domain containing 1)	2	0.466
SORBS1 (sorbin and SH3 domain containing 1)	3	-0.696
LOC727820 (retired record)	1	0.294
LOC727820 (retired record)	2	0.593
LOC727820 (retired record)	3	-0.859
E2F2 (E2F transcription factor 2)	1	-0.317
E2F2 (E2F transcription factor 2)	2	0.504
E2F2 (E2F transcription factor 2)	3	-0.158
TAS2R13 (taste 2 receptor member 13)	1	4.07
TAS2R13 (taste 2 receptor member 13)	2	0.478
TAS2R13 (taste 2 receptor member 13)	3	1.53
GATD3 (glutamine amidotransferase class 1 domain containing 3)	1	-0.98
GATD3 (glutamine amidotransferase class 1 domain containing 3)	2	0.501
GATD3 (glutamine amidotransferase class 1 domain containing 3)	3	-0.0556
ALDH3B1 (aldehyde dehydrogenase 3 family member B1)	1	0.44
ALDH3B1 (aldehyde dehydrogenase 3 family member B1)	2	7.33 (active)
ALDH3B1 (aldehyde dehydrogenase 3 family member B1)	3	0.665
SERPINI2 (serpin family I member 2)	1	0.34
SERPINI2 (serpin family I member 2)	2	0.0698
SERPINI2 (serpin family I member 2)	3	2.28
UBAC2 (UBA domain containing 2)	1	-0.119
UBAC2 (UBA domain containing 2)	2	1.58
UBAC2 (UBA domain containing 2)	3	-0.0642
RNASE2 (ribonuclease A family member 2)	1	1.94
RNASE2 (ribonuclease A family member 2)	2	0.465
RNASE2 (ribonuclease A family member 2)	3	0.499
MTMR3 (myotubularin related protein 3)	1	1.71
MTMR3 (myotubularin related protein 3)	2	0.324
MTMR3 (myotubularin related protein 3)	3	-0.613
CRYAB (crystallin alpha B)	1	5.68 (active)
CRYAB (crystallin alpha B)	2	0.682
CRYAB (crystallin alpha B)	3	-0.364
KNTC1 (kinetochore associated 1)	1	3.21
KNTC1 (kinetochore associated 1)	2	-0.593
KNTC1 (kinetochore associated 1)	3	-0.624

Not a retest: 11 of the entries above.
Gene	reagent	G2 robust z-score
CALY (calcyon neuron specific vesicular protein)	1	3.2
CALY (calcyon neuron specific vesicular protein)	2	-0.152
CALY (calcyon neuron specific vesicular protein)	3	0.468
KIF3C (kinesin family member 3C)	1	-0.898
KIF3C (kinesin family member 3C)	2	-0.746
KIF3C (kinesin family member 3C)	3	-0.165
PLA2G5 (phospholipase A2 group V)	1	0.3
PLA2G5 (phospholipase A2 group V)	2	-0.435
PLA2G5 (phospholipase A2 group V)	3	0.362
ANKRD7 (ankyrin repeat domain 7)	1	0.444
ANKRD7 (ankyrin repeat domain 7)	2	0.415
